In article PMC4915028:
Results are given in words; binding and its absence hold for the method and conditions named. In cells and extracts the contact can be indirect. Some binding calls cover weakened binding; strength is not graded here. For some of these results: Tags and fused reporters may be left off the sequences shown.

By UniProt entry, the sequences of proteins in these tests, tags left out.
UniProt P53355: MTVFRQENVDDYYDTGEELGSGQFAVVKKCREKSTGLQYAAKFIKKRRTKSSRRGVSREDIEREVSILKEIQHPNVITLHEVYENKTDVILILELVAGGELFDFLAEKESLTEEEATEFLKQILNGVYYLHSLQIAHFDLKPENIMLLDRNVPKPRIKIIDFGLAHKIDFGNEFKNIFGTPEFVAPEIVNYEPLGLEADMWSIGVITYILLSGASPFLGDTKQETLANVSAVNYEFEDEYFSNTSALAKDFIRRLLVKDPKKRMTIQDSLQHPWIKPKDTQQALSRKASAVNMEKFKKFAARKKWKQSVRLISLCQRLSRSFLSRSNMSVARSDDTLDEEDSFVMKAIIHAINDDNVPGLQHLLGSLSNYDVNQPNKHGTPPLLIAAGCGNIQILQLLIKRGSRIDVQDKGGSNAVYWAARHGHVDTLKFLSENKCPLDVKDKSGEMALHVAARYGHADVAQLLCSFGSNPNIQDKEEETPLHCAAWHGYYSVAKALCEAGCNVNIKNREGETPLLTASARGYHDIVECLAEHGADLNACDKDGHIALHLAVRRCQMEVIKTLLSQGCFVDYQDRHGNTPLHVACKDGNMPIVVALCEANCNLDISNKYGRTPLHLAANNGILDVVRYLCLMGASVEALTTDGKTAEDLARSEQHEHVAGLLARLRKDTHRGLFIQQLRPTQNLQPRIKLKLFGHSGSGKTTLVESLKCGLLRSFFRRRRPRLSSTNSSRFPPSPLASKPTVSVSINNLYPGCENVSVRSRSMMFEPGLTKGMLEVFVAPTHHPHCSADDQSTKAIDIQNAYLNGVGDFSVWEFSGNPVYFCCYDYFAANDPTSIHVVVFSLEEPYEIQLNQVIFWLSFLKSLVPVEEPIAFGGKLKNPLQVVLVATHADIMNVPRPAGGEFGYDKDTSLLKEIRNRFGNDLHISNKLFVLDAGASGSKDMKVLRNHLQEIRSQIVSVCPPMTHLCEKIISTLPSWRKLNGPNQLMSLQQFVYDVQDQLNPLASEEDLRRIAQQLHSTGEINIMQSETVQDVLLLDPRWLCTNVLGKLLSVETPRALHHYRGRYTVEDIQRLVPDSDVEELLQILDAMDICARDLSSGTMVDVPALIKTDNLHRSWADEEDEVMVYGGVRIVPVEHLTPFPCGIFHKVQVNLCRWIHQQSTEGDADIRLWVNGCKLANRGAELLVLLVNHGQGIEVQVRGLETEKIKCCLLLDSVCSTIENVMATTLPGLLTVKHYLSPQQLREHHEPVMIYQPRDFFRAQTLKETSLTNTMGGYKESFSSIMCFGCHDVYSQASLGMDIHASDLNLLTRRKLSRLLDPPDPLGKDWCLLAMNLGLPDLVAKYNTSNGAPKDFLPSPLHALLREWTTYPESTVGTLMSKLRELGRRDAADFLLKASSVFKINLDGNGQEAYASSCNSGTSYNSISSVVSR
UniProt Q16665: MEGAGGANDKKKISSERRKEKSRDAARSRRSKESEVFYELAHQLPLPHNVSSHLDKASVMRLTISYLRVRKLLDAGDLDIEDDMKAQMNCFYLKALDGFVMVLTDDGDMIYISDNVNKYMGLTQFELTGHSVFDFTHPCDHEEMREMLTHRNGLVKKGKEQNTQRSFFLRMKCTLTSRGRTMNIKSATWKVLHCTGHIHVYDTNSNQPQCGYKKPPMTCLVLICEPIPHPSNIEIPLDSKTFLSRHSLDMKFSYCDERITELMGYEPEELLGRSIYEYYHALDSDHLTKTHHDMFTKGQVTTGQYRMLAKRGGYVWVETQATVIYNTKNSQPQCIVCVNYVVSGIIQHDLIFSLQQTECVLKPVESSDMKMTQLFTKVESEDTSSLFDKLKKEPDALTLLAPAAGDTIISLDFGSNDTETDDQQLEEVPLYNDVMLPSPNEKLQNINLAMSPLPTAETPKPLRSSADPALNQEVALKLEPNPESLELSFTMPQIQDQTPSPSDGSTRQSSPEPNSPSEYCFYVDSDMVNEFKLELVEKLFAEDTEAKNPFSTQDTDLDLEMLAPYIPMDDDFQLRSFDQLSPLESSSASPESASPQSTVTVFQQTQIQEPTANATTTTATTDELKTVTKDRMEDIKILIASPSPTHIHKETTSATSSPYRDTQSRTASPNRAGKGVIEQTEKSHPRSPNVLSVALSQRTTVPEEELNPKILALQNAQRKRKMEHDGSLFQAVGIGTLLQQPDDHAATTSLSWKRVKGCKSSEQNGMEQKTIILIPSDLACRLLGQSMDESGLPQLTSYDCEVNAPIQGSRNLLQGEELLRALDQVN

Key:
[1] = target: DAPK-Myc, in Jurkat cells (UniProt P53355); assay: co-IP; Jurkat cells transfected with FLAG-PHD2 and DAPK-Myc; whole-cell lysates immunoprecipitated with anti-Myc; blots with anti-FLAG and anti-Myc
[2] = target: DAPK-FLAG (death-associated protein kinase, FLAG-tagged) (UniProt P53355); assay: co-IP; HEK293T transfected with DAPK-FLAG or HIF-1α; whole-cell lysates immunoprecipitated with anti-FLAG or anti-HIF-1α; western blot
[3] = target: DAPK in Jurkat cells (human (endogenous in Jurkat)) (UniProt P53355); assay: co-IP; normoxic and hypoxic (1% O2 for 4 h) Jurkat cells; DAPK precipitated by anti-DAPK; associated HIF-1α by western blot
[4] = target: DAPK-Myc, in HEK293T cells (UniProt P53355); assay: co-IP; HEK293T transfected with DAPK-Myc and the N-terminal (aa 1–180) or C-terminal (aa 181–426) domain of FLAG-PHD2; lysates immunoprecipitated with anti-Myc; western blot

FLAG-PHD2 (prolyl hydroxylase domain protein 2), in Jurkat cells (from UniProt Q9GZT9 1-426) (enzyme)
binding [1]: binds

HIF-1α (hypoxia-inducible factor 1α), transfected (from UniProt Q16665 1-826)
binding [2]: binds

endogenous HIF-1α in Jurkat cells (from UniProt Q16665 1-826)
binding [3]: binds

B1: N-terminal (aa 1–180) domain of FLAG-PHD2 (domain or fragment, UniProt Q9GZT9 1-180)
chain: MANDSGGPGGPSPSERDRQYCELCGKMENLLRCSRCRSSFYCCKEHQRQDWKKHKLVCQGSEGALGHGVGPHQHSGPAPPAAVPPPRAGAREPRKAAARRDNASGDAAKGKVKAKPPADPAAAASPCRAAAGGQGSAVAAEAEPGKEEPPARSSLFQEKANLYPPSNTPGDALSPGGGLR
binding [4]: binds
